Assay: general procedure: Fmoc solid-phase peptide synthesis; TentaGel-PAP resin (Rapp Polymere, Germany)
Conditions: whole synthesis, analytical HPLC

(C14)2-dap-Trp-Ile-Pro-Val-Ser-Leu-Arg-Ser-Gly-Glu-Glu-Glu-Glu-PEG2000-OH
final HPLC purity: >98%

Reference: US9161993B2 (Danmarks Tekniske Universitet, priority 2011, dated 2015)
